Measurements taken from PMC9507965.
No constants are given. Whether binding was seen depends on the method and setting. For part of these data: In cells and extracts the contact can be indirect. Some results given as binding are weak or reduced against the parent protein; the word gives no strength.

Chains of the proteins cited; added tags and fusions are not shown.
UniProt P35222: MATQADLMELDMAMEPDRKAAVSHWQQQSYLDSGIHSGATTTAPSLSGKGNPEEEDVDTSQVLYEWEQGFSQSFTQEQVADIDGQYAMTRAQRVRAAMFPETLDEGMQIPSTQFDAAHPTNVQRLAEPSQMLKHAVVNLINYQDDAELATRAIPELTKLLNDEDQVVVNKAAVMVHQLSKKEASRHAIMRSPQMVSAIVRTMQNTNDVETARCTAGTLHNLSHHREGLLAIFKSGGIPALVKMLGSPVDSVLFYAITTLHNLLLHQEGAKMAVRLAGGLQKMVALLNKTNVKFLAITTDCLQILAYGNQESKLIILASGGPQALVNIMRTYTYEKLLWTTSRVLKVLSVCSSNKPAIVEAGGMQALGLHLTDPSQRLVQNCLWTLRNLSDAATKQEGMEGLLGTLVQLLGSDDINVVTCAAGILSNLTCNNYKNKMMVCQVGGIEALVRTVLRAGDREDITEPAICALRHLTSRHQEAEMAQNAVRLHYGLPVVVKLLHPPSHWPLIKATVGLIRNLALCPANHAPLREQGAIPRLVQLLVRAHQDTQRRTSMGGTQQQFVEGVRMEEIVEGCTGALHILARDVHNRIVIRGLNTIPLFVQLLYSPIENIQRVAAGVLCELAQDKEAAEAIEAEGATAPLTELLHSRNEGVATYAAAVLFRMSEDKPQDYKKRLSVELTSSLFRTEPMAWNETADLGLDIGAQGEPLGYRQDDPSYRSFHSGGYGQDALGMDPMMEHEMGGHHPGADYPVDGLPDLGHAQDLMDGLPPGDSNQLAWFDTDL

Assays:
[1] = target: T1, Metastasis-associated in colorectal cancer-1 (MACC1) (human (endogenous in SW620)) (UniProt Q6ZN28); assay: co-IP; Co-IP on whole-cell lysates, cytoplasmic and nuclear protein of SW620 cells
T1 sequence: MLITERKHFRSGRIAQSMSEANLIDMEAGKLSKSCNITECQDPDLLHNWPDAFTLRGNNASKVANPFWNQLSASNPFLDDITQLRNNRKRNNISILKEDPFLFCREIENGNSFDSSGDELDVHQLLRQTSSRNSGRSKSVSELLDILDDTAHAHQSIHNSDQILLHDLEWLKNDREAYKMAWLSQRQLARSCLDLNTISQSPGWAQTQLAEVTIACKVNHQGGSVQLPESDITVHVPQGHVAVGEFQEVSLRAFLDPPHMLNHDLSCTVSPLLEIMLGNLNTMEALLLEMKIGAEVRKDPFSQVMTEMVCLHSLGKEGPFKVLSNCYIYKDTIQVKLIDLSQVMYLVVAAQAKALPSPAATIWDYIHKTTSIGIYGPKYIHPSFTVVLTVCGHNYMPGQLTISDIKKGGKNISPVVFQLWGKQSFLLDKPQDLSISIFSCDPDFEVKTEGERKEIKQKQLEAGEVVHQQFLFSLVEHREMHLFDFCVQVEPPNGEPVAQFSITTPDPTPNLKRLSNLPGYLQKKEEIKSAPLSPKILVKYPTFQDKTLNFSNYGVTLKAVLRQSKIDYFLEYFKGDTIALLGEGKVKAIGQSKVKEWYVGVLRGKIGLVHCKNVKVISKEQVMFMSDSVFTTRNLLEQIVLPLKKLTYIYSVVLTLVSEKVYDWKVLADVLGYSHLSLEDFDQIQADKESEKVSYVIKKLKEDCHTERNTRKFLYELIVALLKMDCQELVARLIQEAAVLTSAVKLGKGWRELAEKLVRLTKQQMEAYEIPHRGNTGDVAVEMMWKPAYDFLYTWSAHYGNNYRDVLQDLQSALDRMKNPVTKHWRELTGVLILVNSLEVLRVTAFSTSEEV

[2] = target: T2, recombinant human MACC1 (human) (UniProt Q6ZN28); assay: co-IP; cell-free Co-IP: recombinant human MACC1 and β-catenin co-incubated in an equimolar ratio in lysis buffer; IP of MACC1 and IP of β-catenin; both purified
T2 sequence: T1 sequence

[3] = target: recombinant human β-catenin (human) (UniProt P35222); assay: as above

Question: How did the binding [1] turn out when β-catenin (from UniProt P35222 1-781) was run?
Answer: Its binding is “binds”.

Question: How did the binding [2] turn out when “recombinant human β-catenin (from UniProt P35222 1-781)” was run?
Answer: Its binding is “binds”.

B1: recombinant human MACC1 (protein, UniProt Q6ZN28 1-852)
chain: T1 sequence
Question: Which binding [3] does the source give for B1 here?
Answer: The binding was “binds”.
